Measured values taken from PubChem BioAssay AID220 (DTP/NCI, 2004).
The list is a part of this screen's results and no random one: it is rich in T/C values a quarter to a half above the control, in often repeated tests (any T/C) and in doses without a T/C. Other doses and runs of a compound stand elsewhere. T/C is the treated group as % of the vehicle group. Schedule codes are those of the source, taken here to give the interval after Q, in days (D) or hours (H), and the number of doses after X. Some T/C values are negative: the treated tumours shrank. Some T/C values are followed by the survivors on the day toxicity was checked, most often the fifth; without a count, all were alive then. Some doses have a count of surviving animals in place of a T/C: the source files T/C as zero there, which appears to mark a toxic dose or a test without result, not a measured value. Survivors were counted at the toxicity check, usually on the fifth day, unless a day is given; later deaths do not show. Some doses were run more than once; their values stand side by side, smallest first.

Test system: CD8F1 mice, subcutaneous mammary adenocarcinoma, T/C%
Test: NCI In Vivo Anticancer Drug Screen. Data for tumor model Mammary Adenocarcinoma CD8F1 (subcutaneous) in CD8F1
Settings: higher T/C = larger tumour
Summary of the method: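 Tumor-bearing mice, transplantable model; readout survival or tumor size; value = treated (T) / vehicle control (C).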

[1] = T/C endpoint: median tumor weight change, dose: 500.0 mg/kg/injection, schedule: Q01DX001 (ip), vehicle: saline with Tween-80
[2] = T/C endpoint: median tumor weight change, dose: 1000.0 mg/kg/injection, schedule: Q01DX001 (ip), vehicle: saline with Tween-80

For `O=P1(NCCCl)OCCCN1CCCl` (stereo not drawn), the survivor count (T/C endpoint: median tumor weight (est.), dose: 200.0 mg/kg/injection, schedule: Q07DX005 (ip), vehicle: saline) was 4 of 10, the T/C (T/C endpoint: median tumor weight change, dose: 50.0 mg/kg/injection, schedule: Q01DX001 (ip), vehicle: saline, evaluated on day 27) was 90 % of control and the T/C (T/C endpoint: median tumor weight change, dose: 50.0 mg/kg/injection, schedule: Q01DX001 (ip), vehicle: saline, evaluated on day 28) was 77 % of control. For the same compound, the T/C (T/C endpoint: median tumor weight change, dose: 50.0 mg/kg/injection, schedule: Q01DX001 (ip), vehicle: saline, evaluated on day 31) was 64 % of control [9 of 10 alive on day 31], the T/C (T/C endpoint: median tumor weight change, dose: 50.0 mg/kg/injection, schedule: Q01DX001 (ip), vehicle: saline, evaluated on day 37) was 75 % of control and the T/C (T/C endpoint: median tumor weight change, dose: 100.0 mg/kg/injection, schedule: Q01DX001 (ip), vehicle: saline, evaluated on day 27) was 55 % of control. The T/C (T/C endpoint: median tumor weight change, dose: 100.0 mg/kg/injection, schedule: Q01DX001 (ip), vehicle: saline, evaluated on day 28) was 31 % of control, the T/C (T/C endpoint: median tumor weight change, dose: 100.0 mg/kg/injection, schedule: Q01DX001 (ip), vehicle: saline, evaluated on day 31) was 44 % of control and the T/C (T/C endpoint: median tumor weight change, dose: 100.0 mg/kg/injection, schedule: Q01DX001 (ip), vehicle: saline, evaluated on day 37) was 27 % of control. For the same compound, the T/C (T/C endpoint: median tumor weight change, dose: 200.0 mg/kg/injection, schedule: Q01DX001 (ip), vehicle: saline, evaluated on day 27) was 37 % of control, the T/C (T/C endpoint: median tumor weight change, dose: 200.0 mg/kg/injection, schedule: Q01DX001 (ip), vehicle: saline, evaluated on day 28) was 37 % of control and the T/C (T/C endpoint: median tumor weight change, dose: 200.0 mg/kg/injection, schedule: Q01DX001 (ip), vehicle: saline, evaluated on day 31) was 5 % of control. The T/C (T/C endpoint: median tumor weight change, dose: 200.0 mg/kg/injection, schedule: Q01DX001 (ip), vehicle: saline, evaluated on day 37) was -20 % of control [9 of 10 alive on day 37], the T/C (T/C endpoint: median tumor weight change, dose: 400.0 mg/kg/injection, schedule: Q01DX001 (ip), vehicle: saline, evaluated on day 27) was 8 % of control and the T/C (T/C endpoint: median tumor weight change, dose: 400.0 mg/kg/injection, schedule: Q01DX001 (ip), vehicle: saline, evaluated on day 28) was -19 % of control. For the same compound, the T/C (T/C endpoint: median tumor weight change, dose: 400.0 mg/kg/injection, schedule: Q01DX001 (ip), vehicle: saline, evaluated on day 31) was 14 % of control and the T/C (T/C endpoint: median tumor weight change, dose: 400.0 mg/kg/injection, schedule: Q01DX001 (ip), vehicle: saline, evaluated on day 37) was -31 % of control [9 of 10 alive on day 37].

In the case of `C[n+]1c(/C=N/NC(N)=S)ccc2ccccc21`, the survivor count [1] was 1 of 10 on day 29, the survivor count [2] was 0 of 10 on day 29 and the survivor count (T/C endpoint: median tumor weight change, dose: 2000.0 mg/kg/injection, schedule: Q01DX001 (ip), vehicle: saline with Tween-80) was 1 of 5 on day 29.

For `CC(Cc1ccc(O)cc1)NCC(O)c1ccc(O)c(O)c1` (stereo not drawn), the T/C (T/C endpoint: median tumor weight (est.), dose: 100.0 mg/kg/injection, schedule: Q07DX005 (ip), vehicle: saline with Tween-80, evaluated on day 30) was 149 % of control [9 of 10 alive].

In the case of `O=CC(O)C(O)C(O)C(O)C(=O)O.[NH-]C1CCCCC1[NH-].[Pt+2]` (stereo not drawn), the survivor count (T/C endpoint: median tumor weight (est.), dose: 25.0 mg/kg/injection, schedule: Q07DX005 (ip), vehicle: suspension in saline) was 3 of 10 on day 30, the survivor count (T/C endpoint: median tumor weight (est.), dose: 50.0 mg/kg/injection, schedule: Q07DX005 (ip), vehicle: suspension in saline) was 0 of 10 on day 30 and 1 of 10 on day 30 and the survivor count (T/C endpoint: median tumor weight (est.), dose: 100.0 mg/kg/injection, schedule: Q07DX005 (ip), vehicle: suspension in saline) was 0 of 10 on day 30. The survivor count (T/C endpoint: median tumor weight (est.), dose: 200.0 mg/kg/injection, schedule: Q07DX005 (ip), vehicle: suspension in saline) was 0 of 10 on day 30.

For `O=S(=O)(SC(S(=O)(=O)c1ccccc1)S(=O)(=O)c1ccccc1)c1ccccc1`, the T/C (T/C endpoint: median tumor weight (est.), dose: 100.0 mg/kg/injection, schedule: Q07DX005 (ip), vehicle: Klucel (hydroxypropylcellulose) (HPC), evaluated on day 30) was 125 % of control and the survivor count (T/C endpoint: median tumor weight (est.), dose: 800.0 mg/kg/injection, schedule: Q07DX005 (ip), vehicle: Klucel (hydroxypropylcellulose) (HPC)) was 6 of 10 on day 30.

In the case of `OCCOCC(F)(F)F`, the T/C (T/C endpoint: median tumor weight (est.), dose: 200.0 mg/kg/injection, schedule: Q07DX005 (ip), vehicle: saline with Tween-80, evaluated on day 30) was 129 % of control.

With `COC(C(=O)C(O)C(C)O)C1CC2C=C3C=C(OC4CC(OC5CC(O)C(OC)C(C)O5)C(OC(C)=O)C(C)O4)C(C)C(=O)C3=C(O)C2=C(O)C1OC1CC(OC2CC(OC3CC(C)(O)C(O)C(C)O3)C(O)C(C)O2)C(O)C(C)O1` (stereo not drawn) the survivor count (T/C endpoint: mean tumor weight, dose: 4.0 mg/kg/injection, schedule: Q07DX005 (ip), vehicle: saline) was 2 of 10.

In the case of `COc1cc(C(=O)c2cocc2C(=O)c2ccc3c(c2)OCO3)cc(OC)c1OC`, the survivor count (T/C endpoint: median tumor weight change, dose: 2000.0 mg/kg/injection, schedule: Q01DX001 (ip), vehicle: Klucel (hydroxypropylcellulose) (HPC)) was 0 of 10 on day 32.

`CC(=O)OCC1OC(n2ncc(=O)[nH]c2=O)C(OC(C)=O)C1OC(C)=O` (stereo not drawn) was tested, and the T/C (T/C endpoint: median tumor weight change, dose: 2000.0 mg/kg/injection, schedule: Q01DX001 (ip), vehicle: saline, evaluated on day 36) was 136 % of control.

In the case of `CC[C@@]1(O)C[C@H](OC2CC(N(C)C)C(OC3CC(O)C(OC4CC(O)C(O)C(C)O4)C(C)O3)C(C)O2)c2c(cc3c(c2O)C(=O)c2c(O)ccc(O)c2C3=O)[C@H]1C(=O)OC` (stereo partly drawn), the T/C (T/C endpoint: median tumor weight (est.), dose: 1.5 mg/kg/injection, schedule: Q07DX005 (ip), vehicle: other, evaluated on day 30) was 149 % of control [9 of 10 alive].

`CN(C)C=O` was tested, and the T/C (T/C endpoint: median tumor weight (est.), dose: 200.0 mg/kg/injection, schedule: Q07DX005 (ip), vehicle: saline, evaluated on day 30) was 129 % of control [9 of 10 alive on day 30], the survivor count (T/C endpoint: median tumor weight (est.), dose: 1600.0 mg/kg/injection, schedule: Q07DX005 (ip), vehicle: saline) was 5 of 10 on day 30 and the survivor count (T/C endpoint: median tumor weight (est.), dose: 3200.0 mg/kg/injection, schedule: Q07DX005 (ip), vehicle: saline) was 5 of 10 on day 30.

`C[Si](C)(C)O/C=C1\CCCCC1=O` was tested, and the T/C (T/C endpoint: median tumor weight change, dose: 250.0 mg/kg/injection, schedule: Q01DX001 (ip), vehicle: saline with Tween-80, evaluated on day 33) was 136 % of control, the survivor count [1] was 2 of 10 on day 28 and 6 of 10 on day 33 and the survivor count [2] was 0 of 10 on day 28 and 0 of 10 on day 33.

For `C[n+]1c(/C=C\C=C\N2CCCCC2)sc2ccccc21`, the T/C (T/C endpoint: median tumor weight (est.), dose: 0.25 mg/kg/injection, schedule: Q07DX005 (ip), vehicle: Klucel (hydroxypropylcellulose) (HPC), evaluated on day 30) was 127 % of control, the T/C (T/C endpoint: median tumor weight (est.), dose: 2.0 mg/kg/injection, schedule: Q07DX005 (ip), vehicle: Klucel (hydroxypropylcellulose) (HPC), evaluated on day 30) was 144 % of control [7 of 10 alive on day 30] and the survivor count (T/C endpoint: median tumor weight (est.), dose: 4.0 mg/kg/injection, schedule: Q07DX005 (ip), vehicle: Klucel (hydroxypropylcellulose) (HPC)) was 4 of 10 on day 30. For the same compound, the survivor count (T/C endpoint: median tumor weight (est.), dose: 8.0 mg/kg/injection, schedule: Q07DX005 (ip), vehicle: Klucel (hydroxypropylcellulose) (HPC)) was 0 of 10 on day 30.

With `CCOC(=O)NC1=C(N2CC2)C(=O)C(NC(=O)OCC)=C(N2CC2)C1=O` the survivor count (T/C endpoint: median tumor weight change, dose: 20.0 mg/kg/injection, schedule: Q01DX001 (ip), vehicle: saline with Tween-80) was 5 of 10 on day 28, the survivor count (T/C endpoint: median tumor weight change, dose: 40.0 mg/kg/injection, schedule: Q01DX001 (ip), vehicle: saline with Tween-80) was 0 of 10 on day 28 and 5 of 10 on day 28 and the survivor count (T/C endpoint: median tumor weight change, dose: 40.0 mg/kg/injection, schedule: Q01DX001 (ip), vehicle: saline) was 4 of 10 on day 39. For the same compound, the survivor count (T/C endpoint: median tumor weight change, dose: 40.0 mg/kg/injection, schedule: Q01DX001 (ip), vehicle: suspension in saline) was 5 of 10 on day 32.

`O=c1ccc2ccccc2o1` was tested, and the survivor count (T/C endpoint: median tumor weight change, dose: 250.0 mg/kg/injection, schedule: Q01DX001 (ip), vehicle: Klucel (hydroxypropylcellulose) (HPC)) was 2 of 10 on day 36, the survivor count (T/C endpoint: median tumor weight change, dose: 500.0 mg/kg/injection, schedule: Q01DX001 (ip), vehicle: Klucel (hydroxypropylcellulose) (HPC)) was 0 of 10 on day 36 and the survivor count (T/C endpoint: median tumor weight change, dose: 1000.0 mg/kg/injection, schedule: Q01DX001 (ip), vehicle: Klucel (hydroxypropylcellulose) (HPC)) was 1 of 10 on day 36.

With `COC1C(OC(=O)/C=C/C=C/C=C/C=C/C(=O)O)CCC2(CO2)C1C1(C)OC1CC=C(C)C` (stereo not drawn) the survivor count (T/C endpoint: median tumor weight change, dose: 1000.0 mg/kg/injection, schedule: Q01DX001 (ip), vehicle: suspension in saline) was 0 of 10 on day 40.

In the case of `NC(=S)N/N=C/c1ccc(O)cn1`, the T/C (T/C endpoint: median tumor weight (est.), dose: 25.0 mg/kg/injection, schedule: Q07DX005 (ip), vehicle: saline with Tween-80, evaluated on day 30) was 137 % of control.

With `COC1/C=C/C=C(/C)Cc2cc(O)c(Cl)c(c2)N(C)C(=O)CC(OC(=O)C(C)C)C2(C)OC2C(C)C2CC1(O)NC(=O)O2` (stereo not drawn) the survivor count (T/C endpoint: median tumor weight change, dose: 20.0 mg/kg/injection, schedule: Q01DX001 (ip), vehicle: saline + alcohol) was 0 of 10 on day 31.

In the case of `COc1ccc([C@@]23Oc4cc(OC)cc(OC)c4[C@]2(O)[C@H](O)[C@H](C(=O)N(C)C)[C@H]3c2ccccc2)cc1`, the survivor count (T/C endpoint: median tumor weight change, dose: 20.0 mg/kg/injection, schedule: Q01DX001 (ip), vehicle: Klucel (hydroxypropylcellulose) (HPC)) was 1 of 10 on day 36.
